Data: PubChem BioAssay AID662 (National Center for Advancing Translational Sciences (NCATS), 2007)
This is one part of the list. The main result of the screen is listed elsewhere. These columns were measured beside it and carry no call. The list favours compounds with an active or inconclusive main result. Words in brackets tell the shape of the fitted curve; partial curves, single points and poor fits give uncertain potencies.

Assay: Cell signaling CRE-BLA (Fsk stim)
Conditions: CHO CRE-bla reporter (cAMP response element driving beta-lactamase), forskolin EC10, beta-lactamase ratio; measured here: 460 nm blue channel
Summary of the method: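 Titrated compounds plus EC10 NKH 477 on CHO CRE-bla cells, 3 h, 37 °C. CCF4, 2 h RT. Ratio 460/530 nm → AC50.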

SMILES	AC50
COCCN1C=C(C(=O)OC)C(c2ccc(OC)c(OC)c2)C(C(=O)OC)=C1	10 µM [rising, single point]
O=C(NCc1ccc2c(c1)OCO2)C1CC(=O)N(C2CCCC2)C1 (stereo unspecified)	1.26 µM [falling, partial curve]
CC(CCc1ccccc1)NC(=O)C1CCN(S(=O)(=O)c2cnc[nH]2)CC1 (stereo unspecified)	0.00316 µM [falling, full curve, poor fit]
Cn1cc(-c2nc3cnc(N4CCNCC4)nc3n(C3CC3)c2=O)c2ccccc21	10 µM [rising, partial curve]
O=C(NC1CCN(C(=O)NC2CCCCC2)CC1)c1ccco1	0.398 µM [falling, partial curve]
CCOC(=O)c1cccc(NC(=O)C2CCCN2S(=O)(=O)c2cccc3cccnc23)c1 (stereo unspecified)	12.6 µM [rising, partial curve]
Nc1nc2c(s1)CCc1c-2cnn1-c1ccccc1	25.1 µM [falling, single point]
COc1cc2nc(NC(=O)c3ccccc3)[nH]c(=O)c2cc1OC	25.1 µM [rising, single point]
c1ccc(Oc2nc(Oc3ccccc3)nc(N3CCOCC3)n2)cc1	7.94 µM [rising, partial curve]
CCc1c(C(C)O)oc2ccc3c(C)cc(=O)oc3c12 (stereo unspecified)	1.58 µM [rising, partial curve]
Clc1ccc(OCc2nnc3n2N=C(c2ccc4c(c2)OCCO4)CS3)c(Cl)c1	1 µM [rising, full curve]
CC1Oc2ccccc2N(Cc2ccccc2Cl)C1=O (stereo unspecified)	15.8 µM [rising, partial curve]
CCC(=O)Nc1c(C)cc(C)cc1Cl	0.01 µM [falling, full curve, poor fit]
COc1ccc(-c2cc(C(F)(F)F)nc(N3CCN(C)CC3)n2)cc1	10 µM [rising, single point]
CC12CC(NC(=O)N1c1cccc(C(=O)Nc3ncn[nH]3)c1)c1ccccc1O2 (stereo unspecified)	7.94 µM [falling, partial curve]
O=C(CN(Cc1ccco1)C(=O)CNS(=O)(=O)c1ccc(Cl)cc1)NC1CCCCC1	0.1 µM [falling, full curve]
O=C(NCc1ccco1)C1CCCN(S(=O)(=O)c2cccc3nsnc23)C1 (stereo unspecified)	31.6 µM [falling, partial curve, poor fit]
Clc1ccccc1-c1nnc2sc(-c3ccc4c(c3)OCO4)nn12	12.6 µM [rising, partial curve]
CCc1nc(NCCCn2ccnc2)c2oc3ccccc3c2n1	10 µM [rising, partial curve]
O=C(CSc1nnnn1-c1ccccc1)N1CCc2ccccc2C1	7.94 µM [falling, partial curve]
COc1cccc(-n2c(Cc3cc(=O)[nH]c(=O)[nH]3)nnc2SCC(=O)N2CCC(C)CC2)c1	0.00398 µM [falling, full curve, poor fit]

SMILES	AC50
O=C(COC(=O)c1cncc(Br)c1)NCc1ccco1	6.31 µM [falling, partial curve]
CC(C)C[C@@H](CC(=O)N[C@@H](CCCN)CC(=O)N[C@@H]1CCCC[C@H]1C(=O)N[C@H](CC(=O)N[C@@H](CCC(=O)O)CC(=O)O)Cc1c[nH]c2ccccc12)NC(=O)[C@@H]1CNCC[C@H]1N	10 µM [falling, partial curve, poor fit]
N#C/C(=C\c1ccc(O)c(O)c1)C(=O)NCCCCc1ccccc1	25.1 µM [falling, partial curve, poor fit]
COc1ccc2c(c1)c(=O)oc1cc(OCC(=O)N3CCCC(C)C3)ccc12 (stereo unspecified)	2.51 µM [rising, partial curve]
O=C(CN1C(=O)C2(OCCO2)c2ccccc21)c1ccc(Br)cc1	0.316 µM [rising, single point]
CCCCn1nc(C(=O)NC2=NCCS2)c2ccccc2c1=O	12.6 µM [rising, single point]
Cc1nnc(SCCn2c(N3CCN(c4ccccc4)CC3)nc3c2c(=O)n(C)c(=O)n3C)s1	20 µM [falling, single point]
Cc1ccc2[nH]c(=O)c3cc(C(=O)N4CCN(C(=O)c5ccco5)CC4)sc3c2c1	10 µM [rising, partial curve]
CCOc1cc(/C=C(/C#N)c2ccc(F)cc2)ccc1OCc1ccc(C(=O)O)o1	10 µM [falling, single point]
CCOc1ccccc1CN(Cc1ccco1)S(=O)(=O)c1ccc(-n2cnnn2)c(OC)c1	25.1 µM [falling, single point]
COCCn1c(=O)cnc2cnc(Nc3cccc(OC)c3)nc21	3.16 µM [falling, partial curve]
Cc1ccc(-n2c(C)cc(C(=O)OCC(=O)N(CC(C)C)C3CCS(=O)(=O)C3)c2C)cc1 (stereo unspecified)	25.1 µM [rising, single point]
Cc1ccc(CC(=O)Nc2cccc(C)n2)cc1	25.1 µM [falling, single point]
COCCn1c(=O)c(-c2cccs2)nc2cnc(N(C)C)nc21	5.01 µM [rising, partial curve]
CCN(c1ccccc1)S(=O)(=O)c1ccc2[nH]cc(C(=O)NCCOC)c(=O)c2c1	3.16 µM [falling, full curve]
COc1ccc(C(=O)COC(=O)CSCc2c(C)noc2C)cc1OC	10 µM [rising, partial curve]
Cc1ccc(O)c(-c2cc3ccccc3[nH]2)c1	0.316 µM [rising, partial curve]
COc1ccc(-c2nnc(NC(=O)c3ccc(S(=O)(=O)N4CCCc5ccccc54)cc3)o2)cc1	10 µM [falling, single point]
CCc1nnc(NC(=O)CSc2nc3cccnc3n2C2CCCCC2)s1	12.6 µM [rising, single point]
Cc1cc(C)n(-c2nc(NCC3CCCO3)c3c4c(sc3n2)COC(C)(C)C4)n1 (stereo unspecified)	3.98 µM [rising, full curve]

Taken from above.
COCCn1c(=O)cnc2cnc(Nc3cccc(OC)c3)nc21 | AC50: 3.16 µM [falling, partial curve]
O=C(CN1C(=O)C2(OCCO2)c2ccccc21)c1ccc(Br)cc1 | AC50: 0.316 µM [rising, single point]
